± gives the standard error. The uncertainty is large for many entries.
B1: glmS ribozyme (parent)
chain: AUAAAAGCGCCAGAACUACAGAAAUGUAGUUGACGAGGAGGAGGUUUAUCGAAUUUUCGGCGGAUGCCUCCAAA

Variants of: B1
Experiment: self-cleavage kobs at 10000 uM GlcN6P; higher = faster cleavage; RNA array
Conditions: with glucosamine-6-phosphate
In short: (§1)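 Tiles bearing barcoded ribozyme variants, transcribed in situ by E. coli RNA polymerase on sequenced MiSeq chips, were imaged over ~14 h at 37 °C using a hybridised Cy3 probe. Glucosamine-6-phosphate was supplied at 40 μM to 10 mM in HEPES/KCl/Mg(OAc)2 buffer. kobs came from one- or two-exponential decay fits to normalised per-tile medians, and weighted Michaelis–Menten fits then provided kcat and KM.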

| Variant | self-cleavage kobs at 10000 uM GlcN6P [s⁻¹] |
| --- | --- |
| U30G A42U U56A | 2.89e-05 ± 2.5e-05 |
| U57C C58U | 1.76e-05 ± 1e-05 |
| C16G C34G G60U C61G U65A C67G | 2.78e-05 ± 1.6e-05 |
| U55A G60A | 1.96e-05 ± 1.9e-05 |
| C10G G32U C58A C70G | 2.69e-05 ± 1.8e-05 |
| C16U C50U C71U | 3.39e-05 ± 1.8e-05 |
| U30C G35A C50G C61U A64G | 3.47e-05 ± 2.5e-05 |
| C10U C16U | 1.16e-05 ± 8.8e-06 |
| C10A C68U | 0.000314 ± 0.00028 |
| A33U A36C C58G U69C | 2.97e-05 ± 1.8e-05 |
| C10G A12U A64G | 2.09e-05 ± 1.2e-05 |
| A12G U54C U69G | 2.65e-05 ± 1.6e-05 |
| C10U A15G | 1.73e-05 ± 1.1e-05 |
| C10U U54C | 1.78e-05 ± 1.3e-05 |
| A15C C50G G62U | 2.49e-05 ± 1.8e-05 |
| U46G C68G C71G | 3.14e-05 ± 1.8e-05 |
| G32A A53U U65C | 2.99e-05 ± 1.7e-05 |
| A36U A52G C70A | 3.08e-05 ± 1.6e-05 |
| U65C C68U | 2.09e-05 ± 1.1e-05 |

| Variant | self-cleavage kobs at 10000 uM GlcN6P [s⁻¹] |
| --- | --- |
| C10G G35U C67U C70A | 0.000525 ± 0.00027 |
| G32A U65C | 2.43e-05 ± 1.6e-05 |
| G43A U46A | 1.73e-05 ± 1.7e-05 |
| G7A C16U U54C | 2.21e-05 ± 2e-05 |
| U46G U57C | 2.26e-05 ± 1.5e-05 |
| C34U U69A | 0.000557 ± 0.00052 |
| G43U U46G | 2.29e-05 ± 1.7e-05 |
| G40A A42C | 2.34e-05 ± 1.8e-05 |
| U46G A52U A64G | 3.76e-05 ± 1.9e-05 |
| C10U U31A | 1.81e-05 ± 1.6e-05 |
| G40A U55C A64G | 2.77e-05 ± 1.6e-05 |
| A48G C61U | 2.43e-05 ± 1.6e-05 |
| G29U A64C | 1.31e-05 ± 1.2e-05 |
| C58U G66A | 2.16e-05 ± 1.4e-05 |
| A12G A48C | 1.59e-05 ± 1.6e-05 |
| G37C C68U | 1.51e-05 ± 8.3e-06 |
| A24U | 0.059 ± 0.045 |
| U30C G32C G35C C50G G62U | 3.05e-05 ± 2.2e-05 |
| G32A A42U | 2.08e-05 ± 1.6e-05 |

| Variant | self-cleavage kobs at 10000 uM GlcN6P [s⁻¹] |
| --- | --- |
| C11A U30C C67G | 2.67e-05 ± 2.2e-05 |
| A12C A14C G66C | 3.38e-05 ± 2.3e-05 |
| U30C U45G | 4.14e-05 ± 2.2e-05 |
| A6U A39C | 2.37e-05 ± 1.2e-05 |
| A36C C67A C68G | 3.14e-05 ± 1.9e-05 |
| C68U | 0.01 ± 0.0058 |
| U47A G66C C67U | 3.02e-05 ± 1.5e-05 |
| U30A G44U | 2.55e-05 ± 1.7e-05 |
| C50G G62U G66C C70A | 2.46e-05 ± 2e-05 |
| G7A C8U A53C U55A U69A | 3.13e-05 ± 2.1e-05 |
| G43U U56G | 1.46e-05 ± 1.2e-05 |
| A12G C16G A53U C71A | 2.69e-05 ± 2.1e-05 |
| C34A C68G | 0.000599 ± 0.00047 |
| A12U G13A G29A U45G | 2.47e-05 ± 2.4e-05 |
| U31G A64C | 1.75e-05 ± 9.4e-06 |
| A15U G35U G51U U54A U69G | 4.25e-05 ± 2.4e-05 |
| A15G U30G G44U | 2.58e-05 ± 1.5e-05 |
| A14C C16G A53U | 1.77e-05 ± 1.4e-05 |

Variants of: B1
Experiment: self-cleavage kobs at 2500 uM GlcN6P; higher = faster cleavage; RNA array
Conditions: with glucosamine-6-phosphate
In short: as §1

| Variant | self-cleavage kobs at 2500 uM GlcN6P [s⁻¹] |
| --- | --- |
| U54G U57G | 2.39e-05 ± 1.8e-05 |
| U30C G40U U56G | 2.77e-05 ± 2.7e-05 |
| A33G G51A G62U C68A | 6.3e-05 ± 3.8e-05 |
| U46A C68U U69C | 3.92e-05 ± 2.8e-05 |
| C16U A48U C58G C70G | 3.97e-05 ± 2.1e-05 |
| G37A A52G C67A | 3.36e-05 ± 1.9e-05 |
| U31G A36G U69A | 4.18e-05 ± 3.1e-05 |
| C16G U69A C70U | 2.49e-05 ± 2.5e-05 |
| C68U U69A | 2.46e-05 ± 1.7e-05 |
| A33U U57A C58U C70A C71G | 3.22e-05 ± 2.1e-05 |
| U45A A53G | 0.0366 ± 0.019 |
| G29A C58U C67G | 3.32e-05 ± 2.5e-05 |
| U30C G35A C50G C61U A64G | 0.000778 ± 0.00042 |
| A15U A52G U65G C67U C68A | 3.1e-05 ± 2.1e-05 |
| G29C U30C G51A A52U U55G G60C C70G | 3.91e-05 ± 2.4e-05 |
| G60U C61A C67A C70A | 3.4e-05 ± 2.4e-05 |
| U49A U69A | 4.42e-05 ± 2.4e-05 |
| A33C C71U | 2.83e-05 ± 1.6e-05 |
| G37U C70G | 2.67e-05 ± 1.5e-05 |
| A39C G44U | 1.77e-05 ± 1.4e-05 |
| C16A A42G C71G | 3.16e-05 ± 1.9e-05 |
| A42G U54C | 0.0168 ± 0.0094 |
| U30A A33C | 2.14e-05 ± 1.3e-05 |
| A15U G41C C71U | 2.88e-05 ± 1.8e-05 |

Retrieved one by one from above (four):

| Variant | self-cleavage kobs at 2500 uM GlcN6P [s⁻¹] |
| --- | --- |
| U30C G35A C50G C61U A64G | 0.000778 ± 0.00042 |
| A42G U54C | 0.0168 ± 0.0094 |
| U30A A33C | 2.14e-05 ± 1.3e-05 |
| G29A C58U C67G | 3.32e-05 ± 2.5e-05 |

(cont.)

| Variant | self-cleavage kobs at 2500 uM GlcN6P [s⁻¹] |
| --- | --- |
| U46G C50U C67U C68A U69G | 9.56e-05 ± 5.9e-05 |
| C16G G41A U55A | 4.16e-05 ± 3.5e-05 |
| U46G C68G C71G | 4.2e-05 ± 2.2e-05 |
| G38A | < 1e-05 |
| G29U A53G U57C C67G U69A | 0.000336 ± 0.0002 |
| A42G A48G U54A | 4.83e-05 ± 2.9e-05 |
| G44U U45G A53C | 0.000862 ± 0.00046 |
| A36U A52G C70A | 6.78e-05 ± 3.7e-05 |
| U65C C68U | 2e-05 ± 1.5e-05 |
| U46C C68G | 4.33e-05 ± 3.4e-05 |
| U30G A48U C71A | 2.97e-05 ± 1.8e-05 |
| G35C C50G C58A | 3.38e-05 ± 2.5e-05 |
| C16G U45A C58U | 2.37e-05 ± 2e-05 |
| C16A A53U C67G | 5.8e-05 ± 3.7e-05 |
| G43U U46G | 3.53e-05 ± 2e-05 |
| G40A A42C | 1.71e-05 ± 1.3e-05 |
| C16G U47G C50G C68G | 1.37e-05 ± 1.3e-05 |
| A33G C68G | 2.48e-05 ± 1.4e-05 |
| U30A U49G C68U | 4.32e-05 ± 2.9e-05 |
| A48G C61U | 4.12e-05 ± 2.2e-05 |
| G32A A33U | 2.05e-05 ± 1.3e-05 |
| G29U A64C | 1.77e-05 ± 1.3e-05 |
| A39C A48C U55A | 2.93e-05 ± 1.6e-05 |
| C61A C70U | 1.49e-05 ± 1.5e-05 |

Taken from the entries so far for reference:

| Variant | self-cleavage kobs at 2500 uM GlcN6P [s⁻¹] |
| --- | --- |
| U30G A48U C71A | 2.97e-05 ± 1.8e-05 |
| G35C C50G C58A | 3.38e-05 ± 2.5e-05 |
| C16G U45A C58U | 2.37e-05 ± 2e-05 |
| C16A A53U C67G | 5.8e-05 ± 3.7e-05 |
| G43U U46G | 3.53e-05 ± 2e-05 |

More records

| Variant | self-cleavage kobs at 2500 uM GlcN6P [s⁻¹] |
| --- | --- |
| A33U C50U C61A C68G C70U | 4.56e-05 ± 2.8e-05 |
| A33U C50U C68U | 3.31e-05 ± 3.3e-05 |
| A33U G38A A48G G66U U69G | 3.53e-05 ± 2.2e-05 |
| C16G A48U C50G C70A | 3.06e-05 ± 2.2e-05 |
| U54C C58G | 1.31e-05 ± 1.2e-05 |
| U31A G63U U69G | 4.25e-05 ± 2.9e-05 |
| U45G C58G | 1.95e-05 ± 1.4e-05 |
| A39U G41C | 1.47e-05 ± 1.3e-05 |
| G32U G35C U46A C67G C68A | 0.00106 ± 0.00066 |
| U30C U45G | 3.37e-05 ± 1.9e-05 |
| U47C U57C C70U | 2.46e-05 ± 1.9e-05 |
| G38A A42U C50G C67G | 4.65e-05 ± 3.3e-05 |
| U30A G44A | 1.68e-05 ± 1.3e-05 |
| C50G G62U G66C C70A | 2.91e-05 ± 1.8e-05 |
| U57A C68A C71G | 3.69e-05 ± 2.8e-05 |
| A15G A52C | 2.11e-05 ± 1.4e-05 |
| U31A C50A C70U C71U | 3.51e-05 ± 1.9e-05 |
| A33U U54A C70A | 3.58e-05 ± 1.9e-05 |
| U31G A64C | 2.56e-05 ± 1.3e-05 |
| A15U U30A | 0.0355 ± 0.026 |
| C16A G63U A64C U69A | 4.75e-05 ± 2.4e-05 |
| U55C C58U | 1.11e-05 ± 7.4e-06 |
| G32A U57A C70G | 7.54e-05 ± 6.3e-05 |
